Laboratory results published in PubChem BioAssay AID1347423 (Functional Genomics Laboratory (NCATS/FGL), 2020).
Among all 52,000 sequences or so, about 210 (0.4%) were called active.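 The calls were made as follows: active = gene whose silencing raises cell survival under the drug, median off-target-corrected z-score across its silencing RNAs 2 or more; inactive = the rest.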 The list shows a part of the results.

test: Resistance to Poly (ADP-Ribose) Polymerase inhibitor: Gene Identification via Genome-wide siRNA Screen; details: mouse BRCA2 R2336H ES cells, olaparib, CellTiter-Glo viability; stronger effect = higher value
Method in brief: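 Mouse BRCA2 R2336H ES cells were reverse-transfected with siRNA (20 nM final), treated at 48 h with 500 nM olaparib, and read by CellTiter-Glo after 72 h. Scores: MAD-based z per siRNA, median per gene, seed off-target correction.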

Sequence | z-score
GGAUUGCUGUGCCUUAUGATT against 2010004A03Rik | inactive: 0.503
CCCUAUCAUCGAUGGUCGCTT against Rnpc1 | inactive: 0.143
GUUAGGUGACUACACUACATT against D5Ertd689e | inactive: -0.0239
CGAGAAGUGCUGACUCAAUTT against Gtlf3a | inactive: -0.147
GGAACAGAUCUCUGAUAUATT against Rpo2tc1 | inactive: -1.78
GGUCAGCAUUUGCUAUGAATT against 4930488E11Rik | inactive: 0.678
GGACAUUCUUCAGAACUGGTT against Ogfr | inactive: 1.16
GGAUGAGGAGGAUACAAAGTT against Eif3s8 | inactive: -3.26
GGUGUGGUCAUUCCAAAUGTT against Ms4a8a | inactive: -2.57
GGUGAUGCGAUCUUCUUUATT against Anxa10 | inactive: -0.0853
GGCUUACCUACAACAAGUUTT against Ccnt1 | inactive: 0.152
GGCAAUGAGAGUGCAUAUGTT against 2310061G07Rik | inactive: -2.66
GGGAACAAAUGUUUCAUUGTT against Mfap3 | inactive: 0.199
CGACGAAGAUAUUUACAGUTT against Vav1 | inactive: -0.0388
GGAAAUUAAAGACCAGUAGTT against 2810025M15Rik | inactive: -0.232
GGAAGACAAUGAUGAUGUUTT against Clns1a | inactive: -1.66
GGCAUCUUCAUGUACUUGCTT against Olfr1445 | inactive: 2.1
GGAGAAUUCCAAUUUUAGGTT against Pcdhb14 | inactive: 1.39
GCCAGAACCCGUCUUUUCATT against Ccpg1 | inactive: -1.85
GCAAUGUGGGUUAUUAUUUTT against Olfr963 | inactive: -0.297
GGAAAGGCAAAUACCAAGCTT against Ddx25 | inactive: 1.83
CCAUGAAAAGUGUGAAUGCTT against Fap | inactive: 1.3
CCUGUCAGUUAACAUUUGATT against Acadsb | inactive: 1.48
GGCAUUUUGGAACCUAUAATT against 9030418M05Rik | inactive: 1.13
GGCUAAGGAAAUUUUAACGTT against Ppp2cb | inactive: 0.945
GGAGCUCAUGAAGAUGAAGTT against 1700051E09Rik | inactive: 0.674

Sequence | z-score
GGAUGUUGGCAGCCGAACATT against Siat5 | inactive: 0.434
GGGAAAAAAAAGCAUCACUTT against 1110004B15Rik | inactive: -0.128
GGAGACUGACAAGAAAAUUTT against AU018829 | inactive: -0.855
GGAAAAAACCUUUGACCAATT against 4930532D21Rik | inactive: 0.198
GAGCCUUCUAAGUCUGCACTT against Hist1h2bb | inactive: 0.996
CCUAACACUAGUCUCAGAATT against Olfr873 | inactive: 1.3
GUGAAGUCUUCAGCAGUCUTT against Sprr2f | inactive: -0.257
GCAAUGACUUGAACUAUUUTT against 4930578C19Rik | inactive: 0.564
CGGAUACCGUAGUUUGGUGTT against Lipe | inactive: -0.616
GCCCAGCCUACUAACAACCTT against Plxnb1 | inactive: -0.416
GUAUUUGGGACUGAAUUGCTT against AV284857 | inactive: -1.66
GGGAAAGUGCUCUAGCAAGTT against D8Ertd233e | inactive: -0.229
GCCACUUUCUGGUUUUGUATT against Tas2r126 | inactive: 0.784
CCGUGUAAACCUGGCAUCATT against Znhit1 | inactive: 1.52
GGCUGGUUACCUGCAUAAGTT against Sh3bp2 | inactive: -0.404
CCAUUGUCAAGUCAAGAGCTT against 4933440M02Rik | inactive: 0.42
GCAUGCAGACUUACAGAAGTT against 2610034E18Rik | inactive: 0.251
GGAGUACCUGGACAUUGUGTT against 1110032N12Rik | inactive: 0.677
GGAUUAUGAUUUGCCUGAUTT against 4932414N04Rik | inactive: -0.719
GGACAAUUUACACGACCAGTT against Folr1 | inactive: -0.179
CGGAAAAAGAAGGACAUCCTT against Mesdc2 | inactive: 1.02
GCAAAUUAGGCUCUUAUCCTT against 4930402H24Rik | inactive: 0.641
GGGUGUUGGAGUUUGCCAUTT against BC034068 | inactive: 0.0452
GGAAGAAAUCAAGGUAUCATT against 9330155M09Rik | inactive: -2.71
CGAUUUCAACCGUGAAUCUTT against Tcf12 | inactive: 2.9
GGUUUGGCAUCUAAAGAGCTT against Olfr1412 | inactive: 1.71

Fetched one by one from above, two records:
Sequence | z-score
CGGAUACCGUAGUUUGGUGTT against Lipe | inactive: -0.616
GGAUUAUGAUUUGCCUGAUTT against 4932414N04Rik | inactive: -0.719

Some of the entries so far, tab-delimited.
Sequence	z-score
GGAGACUGACAAGAAAAUUTT against AU018829	inactive: -0.855
GCAAUGACUUGAACUAUUUTT against 4930578C19Rik	inactive: 0.564
GGGAAAGUGCUCUAGCAAGTT against D8Ertd233e	inactive: -0.229
CCAUUGUCAAGUCAAGAGCTT against 4933440M02Rik	inactive: 0.42

Continued.

Sequence | z-score
GGUAAAGAAAUGAGGACCGTT against Tas2r130 | inactive: 0.311
CGCACAUGCCACUUCCACATT against 4933425A18Rik | inactive: -1.07
GGAUCCUGCCUUAAGUCAATT against Gadd45a | inactive: 2.58
GGGCUGCUGCUUAGCAAUCTT against Egln3 | inactive: -0.555
GCUGCCUAUAUUCAUUUAATT against Zhx3 | inactive: 0.943
CGCAGUCAAAUUUGAAAGUTT against Car5b | inactive: -1.01
GGAAGAAGAUCACCAUCAUTT against Ifi16 | inactive: -2.37
GCAGUUCUCCUAUUUCAUCTT against Cdc45l | inactive: 0.857
GGCUCAGUUUAAGAAAACATT against Pkp2 | inactive: 1.39
GGCUACCGCCACAUUGAUUTT against Akr1a4 | inactive: -0.59
GGAGAAGAAGAACAGGACATT against 9130020G10Rik | inactive: -3.07
GGGCUGACCAUAACUUGAUTT against Unc5d | inactive: 1.13
GGAUCAAGAAUCCAAGGUUTT against Nek6 | inactive: 0.285
GCAAAGUUCACCUAAUUGGTT against Lipc | inactive: 0.593
GGGACCAGAACAAAGUGGUTT against Olfr487 | inactive: -0.257
GGAUGGCAGACAUUAUGUCTT against Nek1 | inactive: 0.811
CGGCUAAGGAAAAAUGUGATT against Nr1h4 | inactive: -0.308
GCCCAUAAUAAGGAUCCUATT against Tmem34 | inactive: 0.857
GGAGUAUCGUUUAUUCAUUTT against Slc2a2 | inactive: 0.00539
GGCACGAGUUUGACAGUGCTT against 1110007F12Rik | inactive: -0.855
GCGGUUUCUUACCAAUAACTT against Cyp1a2 | inactive: 1.48
CGCGCUAAAGGAGAAGUUUTT against Wnt4 | inactive: -0.789
GGGUCAAGACAAAUCUUCCTT against Snx3 | inactive: 0.0442
GGCCAUCAGAUAGUUUAAUTT against AW551984 | inactive: -0.3
GGGUAGUAGCCUUCUUAUCTT against Olfr1168 | inactive: 0.933
CGUGAUGUGGUAUUGGAACTT against Ampd2 | inactive: 0.214

Rewritten as tab-separated lines: entries from further up
Sequence	z-score
GUUAGGUGACUACACUACATT against D5Ertd689e	inactive: -0.0239
GCAAUGACUUGAACUAUUUTT against 4930578C19Rik	inactive: 0.564

Remaining list, next part:

Sequence | z-score
GGCCCUUGAUAACUUUUCCTT against 1810037K07Rik | inactive: -0.499
GAACUUCUUCUGGAAAACCTT against Cort | inactive: 0.558
CCAAUUGUGAAGAUGUUUGTT against Eif3s6 | inactive: -1.9
GGCACUGUUGUGGCUGAAATT against Coro1a | inactive: 1.21
GGAGACAAGAACUACAUUATT against Actn3 | inactive: -0.825
GGUCAGAAGAGAUGCCAAUTT against Gpr81 | inactive: 1.71
GACACUGUCAAAUUAUGGATT against V1rg5 | inactive: -0.297
GCCGAGCUCAUCAUCAUGATT against Tesp2 | inactive: 2.42
GGAACAGUCCUACUGAUAUTT against Cdkn1a | inactive: -0.196
GCAUAGUCUUGUUAACCAGTT against Poldip3 | inactive: 1.36
GGACAUGAAAGAUGCAAUUTT against Olfr421 | inactive: -0.5
GCCUUUUCAAUCCUAUGUUTT against Olfr441 | inactive: -1.44
GGGAUUUUCUGUGUAUCUUTT against D5Ertd33e | inactive: -0.0623
GCAGGCAUCAUUACAAAAATT against BC003262 | inactive: -0.0363
GCAACCUUUUUACAACACCTT against 8430426H19Rik | inactive: 1.12
GGUUUUAACAUGAGCAGCCTT against Ofcc1 | inactive: 0.224
GGAGAUCAGUUAACCCUACTT against Crisp2 | inactive: -0.0974
GGAAGGUCUAGUUGAUUGUTT against Klrb1a | inactive: -0.118
GGACAACAUUAUAGGAAAGTT against Neu3 | inactive: 2.46
GGACCAUGGCAUUAAACUGTT against Edg1 | inactive: 0.167
GGCAUCAAGUGACUUAUAATT against BC023179 | inactive: -1.5
GCUUUGAGCAGCUAGGUUATT against Tpcn2 | inactive: 0.236
GGUGAUGCAGAAAGGUGGATT against H2-M10.5 | inactive: -0.746
GGAGAAACACUAUUUUGGATT against BC013529 | inactive: 0.894
GGAAGUUAGCCCUAAAGUUTT against Uchl1 | inactive: -0.535
